Laboratory results published in PubChem BioAssay (NCATS).
The inconclusive results got no clear call from the source; some entries with a clear call stand among them for comparison. Potencies beside an inconclusive call are fits to weak or partial responses and may not hold up. Activity calls are given as the source filed them. Calls follow the shape of the dose curve; as a rule, active = well fitted curve in the direction sought with a large enough effect; inconclusive = small, poorly fitted or top-dose-only effect, or another doubt; inactive = no such curve, though single readings can be large; an effect the other way counts as inactive or inconclusive.

Columns and labels:
[1] = Quantitative highthroughput screen to assess conditional lethalithy of NOMO1 cells grown in RPMI1640 with untreated serum (RPMI+s) (AID 1963876); details: NOMO1 AML cells in RPMI+serum, CellTiter-Glo viability, 48 h; viability: at 45.8 µM (top of the series); also: nearly all actives have a fitted effect of over 35% in size
In short: (§1)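 Each medium arm—HPLM with 10% dialyzed FBS, or RPMI1640 with 5 mM glucose and 10% untreated or dialyzed FBS—was screened against an 11-point, 3-fold compound titration for 48 h at 37 °C, with CellTiter-Glo luminescence as endpoint.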

[2] = Quantitative highthroughput screen to assess conditional lethalithy of NOMO1 cells grown in Human Plasma-Like Medium with dialyzed fetal bovine serum (HPLM+ds) (AID 1963878); details: NOMO1 AML cells in HPLM+ds, CellTiter-Glo viability, 48 h; viability: at 45.8 µM (top of the series); also: nearly all actives have a fitted effect of over 35% in size
In short: as §1

[3] = Quantitative highthroughput screen to assess conditional lethalithy of P12 Ichikawa cells grown in Human Plasma-Like Medium with dialyzed fetal bovine serum (HPLM+ds) (AID 1963879); details: Potency: viability; also: nearly all actives have a fitted effect of over 35% in size
In short: as §1

[4] = Quantitative highthroughput screen to assess conditional lethalithy of P12 Ichikawa cells grown in RPMI1640 with dialyzed fetal bovine serum (RPMI+ds) (AID 1963880); details: Potency: P12-Ichikawa viability; also: nearly all actives have a fitted effect of over 35% in size
In short: as §1

[5] = Quantitative highthroughput screen to assess conditional lethalithy of SEM cells grown in Human Plasma-Like Medium with dialyzed fetal bovine serum (HPLM+ds) (AID 1963882); also: nearly all actives have a fitted effect of over 35% in size
In short: as §1

[6] = Quantitative highthroughput screen to assess conditional lethalithy of SEM cells grown in RPMI1640 with unreated serum (RPMI+s) (AID 1963883); details: SEM B-ALL cells, CellTiter-Glo viability, 48 h; viability: at 45.8 µM (top of the series); also: nearly all actives have a fitted effect of over 35% in size
In short: as §1

[7] = Quantitative highthroughput screen to assess conditional lethalithy of SEM cells grown in RPMI1640 with dialyzed fetal bovine serum (RPMI+ds) (AID 1963884); details: SEM B-ALL cells, RPMI+dialyzed FBS, CellTiter-Glo viability, 48 h; viability: at 45.8 µM (top of the series); also: nearly all actives have a fitted effect of over 35% in size
In short: as §1

[8] = Cellular viability qHTS for adrenocortical cancer (ACC) cell line SW-13 (AID 1963989); details: SW-13 ACC cells viability, CellTiter-Glo, 48 h; activity (max response): hits give low values; also: nearly all actives have a fitted effect of over 65% in size
In short: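 SW-13 cells in ITS-supplemented serum-free DMEM were plated overnight, then exposed for 48 h at 37C to compound titrations (up to 46 uM final). Viability was read by CellTiter-Glo luminescence; four-parameter logistic fits gave IC50 and efficacy.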

[9] = Cellular viability qHTS for adrenocortical cancer (ACC) cell line NCI-H295R (AID 1963990); details: CellTiter-Glo ATP luminescence, 48 h; series mostly up to 46.1 µM; also: nearly all actives have a fitted effect of over 60% in size
In short: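 Luminescent ATP read-out (CellTiter-Glo, 20 min RT) after 48 h drug exposure of NCI-H295R cells; a titration up to 46 uM final. Data normalized to doxorubicin (100% inhibition) and DMSO (0%); 4-parameter fit gives IC50, max response.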

[10] = Quantitative highthroughput screen to assess conditional lethalithy of P12 Ichikawa cells grown in RPMI1640 with untreated serum (RPMI+s) (AID 1963881); details: Potency: viability; also: nearly all actives have a fitted effect of over 35% in size
In short: as §1

[11] = Quantitative highthroughput screen to assess conditional lethalithy of NOMO1 cells grown in RPMI1640 with dialyzed fetal bovine serum (RPMI+ds) (AID 1963877); also: nearly all actives have a fitted effect of over 30% in size
In short: as §1
Potency is read from the fitted curve at half-maximal effect.

SMILES	Potency [1]	Potency [2]	Potency [3]	Potency [4]	Potency [5]	Potency [6]	Potency [7]	Potency [8]	Potency [9]	Potency [10]	Potency [11]
CN(C[C@@H]1COCCO1)S(=O)(=O)Nc1ccc2ccc3ncc(-c4cnn(C)c4)cc3c(=O)c2c1	inconclusive: 1.48 µM [cytotoxic, full curve]	inconclusive: 0.662 µM [cytotoxic, full curve]	inconclusive: 0.662 µM [cytotoxic, full curve]	inconclusive: 0.833 µM [cytotoxic, full curve]	inconclusive: 1.18 µM [cytotoxic, full curve]	active: 0.418 µM	active: 0.662 µM	inconclusive: 17.8 µM [cytotoxic, partial curve, poor fit]	inconclusive: 14.1 µM [cytotoxic, partial curve, poor fit]	–	–
CCN1CCN(CC(=O)Nc2ccc(-c3cccc4c(=O)cc(N5CCOCC5)oc34)c3sc4ccccc4c23)CC1	active: 4.18 µM	inconclusive: 1.87 µM [cytotoxic, full curve]	–	inconclusive: 5.26 µM [cytotoxic, partial curve, poor fit]	inconclusive: 0.833 µM [cytotoxic, full curve]	–	active: 1.32 µM	active: 9 µM	active: 7.15 µM	inconclusive: 1.66 µM [cytotoxic, full curve, poor fit]	–
CO[C@H]1/C=C\O[C@@]2(C)Oc3c(C)c(O)c4c(O)c(c5c(nc6cc(C)ccn65)c4c3C2=O)NC(=O)C(C)=CC=C[C@H](C)[C@H](O)[C@@H](C)[C@@H](O)[C@@H](C)[C@H](OC(C)=O)[C@H]1C	inconclusive: 3.32 µM [cytotoxic, full curve, poor fit]	inconclusive: 3.72 µM [cytotoxic, partial curve, poor fit]	inconclusive: 4.69 µM [cytotoxic, partial curve, poor fit]	inconclusive: 3.32 µM [cytotoxic, full curve, poor fit]	–	inconclusive: 3.32 µM [cytotoxic, full curve]	–	–	–	–	–
COC(=O)C1=CO[C@@H](O)[C@@H]2C(CO)=CC[C@@H]12	inactive	inconclusive: 26.4 µM [cytotoxic, partial curve, poor fit]	inconclusive: 37.2 µM [cytotoxic, partial curve, poor fit]	inconclusive: 26.4 µM [cytotoxic, single point]	inconclusive: 18.7 µM [cytotoxic, partial curve, poor fit]	inconclusive: 18.7 µM [cytotoxic, partial curve]	–	–	–	inconclusive: 23.5 µM [cytotoxic, single point]	–
CC1=C(C(=O)O)N2C(=O)[C@@H](NC(=O)C(N)c3ccccc3)[C@H]2SC1 (stereo partly specified)	inactive	inactive	inactive	–	inactive	inactive	inactive	–	–	–	–
O=C1Nc2ccc(Cl)cc2C(C#CC2CC2)(C(F)(F)F)O1 (stereo unspecified)	inconclusive: 29.6 µM [cytotoxic, single point]	inactive	–	inconclusive: 37.2 µM [cytotoxic, partial curve, poor fit]	–	inactive	inconclusive: 33.2 µM [cytotoxic, single point]	–	–	inconclusive: 37.2 µM [cytotoxic, single point]	–
C[C@]12CCC(=O)C=C1[C@@H]1CC1[C@H]1[C@H]3[C@@H]4C[C@H]4[C@@]4(CCC(=O)O4)[C@@]3(C)CC[C@H]12 (stereo partly specified)	inactive	inactive	–	inconclusive: 37.2 µM [cytotoxic, partial curve, poor fit]	–	–	inactive	–	–	inactive	–
N#CC(=Cc1ccc(O)c(O)c1)C(=O)NCc1ccccc1	inactive	inconclusive: 23.5 µM [cytotoxic, single point]	inconclusive: 14.8 µM [cytotoxic, partial curve]	inconclusive: 16.6 µM [cytotoxic, partial curve]	inconclusive: 16.6 µM [cytotoxic, partial curve]	–	inconclusive: 18.7 µM [cytotoxic, partial curve]	–	–	inconclusive: 18.7 µM [cytotoxic, partial curve]	–
CC(C)[N+]1(C)[C@@H]2CC[C@H]1CC(OC(=O)C(CO)c1ccccc1)C2 (stereo partly specified)	inconclusive: 20.9 µM [cytotoxic, partial curve]	–	–	–	active: 9.35 µM	inconclusive: 6.62 µM [cytotoxic, full curve]	inconclusive: 5.9 µM [cytotoxic, full curve]	–	–	–	inconclusive: 18.7 µM [cytotoxic, partial curve]
CN[C@@H](C)C(=O)N[C@H]1CN(C(=O)CC(C)C)CC[C@H]2CC[C@@H](C(=O)NC(c3ccccc3)c3ccccc3)N2C1=O	active: 1.32 µM	active: 1.05 µM	active: 8.33 µM	active: 11.8 µM	inconclusive: 16.6 µM [cytotoxic, partial curve]	inconclusive: 7.43 µM [cytotoxic, partial curve]	inconclusive: 14.8 µM [cytotoxic, partial curve]	–	–	–	–
O=C1NC(=O)C(=Cc2ccc3c(c2)OC(F)(F)O3)S1	inactive	inactive	inconclusive: 26.4 µM [cytotoxic, partial curve, poor fit]	inactive	inactive	inconclusive: 37.2 µM [cytotoxic, single point]	–	–	–	–	–
NC(=O)c1c(OCc2c(F)cc(Br)cc2F)nsc1NC(=O)NCCCCN1CCCC1	inconclusive: 9.35 µM [cytotoxic, single point]	inconclusive: 6.62 µM [cytotoxic, full curve]	–	inconclusive: 7.43 µM [cytotoxic, full curve]	–	inconclusive: 6.62 µM [cytotoxic, full curve]	inconclusive: 7.43 µM [cytotoxic, full curve, poor fit]	inconclusive: 28.2 µM [cytotoxic, single point]	active: 22.4 µM	inconclusive: 8.33 µM [cytotoxic, single point]	–
CC(=O)N[C@@H]1[C@H](O[C@@H]2c3ccc(c(Cl)c3)Oc3cc4cc(c3O[C@H]3O[C@H](CO)[C@@H](O)[C@H](O)[C@H]3NC(=O)CCCCCCCC(C)C)Oc3ccc(cc3Cl)C[C@H]3NC(=O)[C@H](N)c5ccc(O)c(c5)Oc5cc(O)cc(c5)[C@H](NC3=O)C(=O)N[C@H]4C(=O)N[C@H]3C(=O)N[C@@H]2C(=O)N[C@@H](C(=O)O)c2cc(O)cc(O[C@H]4O[C@H](CO)[C@@H](O)[C@H](O)[C@H]4O)c2-c2cc3ccc2O)O[C@H](CO)[C@@H](O)[C@@H]1O	inactive	inactive	inactive	inconclusive: 8.33 µM [cytotoxic, partial curve, poor fit]	inactive	–	inactive	–	–	–	–
COc1cc2ncnc(Nc3ccc(F)c(Cl)c3)c2cc1NC(=O)C=CCN1CCCCC1	inactive	inconclusive: 13.2 µM [cytotoxic, partial curve]	inconclusive: 14.8 µM [cytotoxic, partial curve, poor fit]	inconclusive: 3.72 µM [cytotoxic, partial curve, poor fit]	–	inconclusive: 16.6 µM [cytotoxic, partial curve]	inconclusive: 20.9 µM [cytotoxic, partial curve]	–	–	inconclusive: 3.32 µM [cytotoxic, partial curve, poor fit]	–
CCOC(=O)N1CCN([N+]([O-])=NOc2ccc([N+](=O)[O-])cc2[N+](=O)[O-])CC1	inconclusive: 23.5 µM [cytotoxic, single point]	inconclusive: 26.4 µM [cytotoxic, single point]	–	inconclusive: 26.4 µM [cytotoxic, single point]	inconclusive: 4.69 µM [cytotoxic, full curve]	–	–	–	–	–	–
Oc1cc(O)cc(C=Cc2ccc(O)c(O)c2)c1	inconclusive: 11.8 µM [cytotoxic, partial curve, poor fit]	inconclusive: 11.8 µM [cytotoxic, full curve]	inconclusive: 20.9 µM [cytotoxic, partial curve]	inconclusive: 23.5 µM [cytotoxic, partial curve]	inconclusive: 20.9 µM [cytotoxic, partial curve]	–	inconclusive: 18.7 µM [cytotoxic, partial curve]	–	–	inconclusive: 26.4 µM [cytotoxic, single point]	–
CC[C@H]1CN2CCc3cc(OC)c(OC)cc3[C@H]2C[C@@H]1C[C@@H]1NCCc2cc(OC)c(OC)cc21	active: 0.469 µM	active: 0.526 µM	active: 0.209 µM	–	active: 0.166 µM	–	inconclusive: 0.264 µM [cytotoxic, full curve, poor fit]	–	–	–	–
